In publication PMC4361392 one finds binding data, which are given here for one substance.

Sequences of proteins named here, by UniProt entry; tags and fusion partners are left off. A change or cut given only in a name is not applied to a line headed by its entry.
UniProt O43791: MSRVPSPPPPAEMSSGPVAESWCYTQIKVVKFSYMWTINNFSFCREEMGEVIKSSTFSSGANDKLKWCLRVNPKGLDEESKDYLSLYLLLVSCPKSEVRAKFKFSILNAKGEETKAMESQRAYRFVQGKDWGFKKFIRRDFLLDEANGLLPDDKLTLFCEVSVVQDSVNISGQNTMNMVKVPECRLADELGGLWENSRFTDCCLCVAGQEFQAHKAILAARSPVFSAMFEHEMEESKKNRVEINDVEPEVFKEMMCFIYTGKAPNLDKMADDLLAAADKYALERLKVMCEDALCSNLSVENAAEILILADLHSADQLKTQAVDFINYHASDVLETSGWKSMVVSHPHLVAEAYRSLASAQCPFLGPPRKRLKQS
UniProt P10275: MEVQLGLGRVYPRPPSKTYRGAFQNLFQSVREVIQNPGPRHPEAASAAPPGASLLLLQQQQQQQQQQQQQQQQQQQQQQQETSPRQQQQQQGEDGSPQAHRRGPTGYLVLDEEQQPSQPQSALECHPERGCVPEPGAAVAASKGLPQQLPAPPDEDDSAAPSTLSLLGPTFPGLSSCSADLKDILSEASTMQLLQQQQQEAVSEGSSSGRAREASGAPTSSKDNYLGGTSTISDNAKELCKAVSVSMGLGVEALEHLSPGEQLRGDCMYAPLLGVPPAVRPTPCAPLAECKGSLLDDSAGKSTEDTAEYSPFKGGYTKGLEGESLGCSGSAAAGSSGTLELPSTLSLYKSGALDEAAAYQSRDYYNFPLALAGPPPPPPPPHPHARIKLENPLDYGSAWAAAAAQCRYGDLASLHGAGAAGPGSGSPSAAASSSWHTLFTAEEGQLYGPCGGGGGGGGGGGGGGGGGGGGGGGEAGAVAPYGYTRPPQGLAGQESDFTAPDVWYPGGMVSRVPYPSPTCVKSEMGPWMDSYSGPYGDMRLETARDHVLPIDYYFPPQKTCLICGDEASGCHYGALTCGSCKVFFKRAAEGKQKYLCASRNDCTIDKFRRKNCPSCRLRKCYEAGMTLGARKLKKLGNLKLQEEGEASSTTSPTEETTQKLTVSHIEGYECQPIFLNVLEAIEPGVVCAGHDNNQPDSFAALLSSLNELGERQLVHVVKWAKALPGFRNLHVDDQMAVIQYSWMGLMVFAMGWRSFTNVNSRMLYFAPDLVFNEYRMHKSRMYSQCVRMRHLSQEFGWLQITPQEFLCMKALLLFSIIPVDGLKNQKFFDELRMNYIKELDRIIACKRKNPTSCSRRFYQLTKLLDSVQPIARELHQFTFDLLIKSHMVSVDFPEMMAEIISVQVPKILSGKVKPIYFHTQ

This experiment addresses Myc-SPOP wild type (human) (UniProt O43791). Description: co-IP; 293T cells transfected with Myc-SPOP and AR WT or deletion mutants 16 hr, 20 µM MG132 for 8 hr; coIP with Myc antibody, WB (Figure 3B).

These are yes or no findings as the source states them, for the method shown. Binding seen in cells or lysates may run through a third protein. Binding can be weak; no strength is given.

For “AR ΔEGSSS deletion mutant (from UniProt P10275)”, the binding result is reported as “binds”.
